## Primary screen of a compound library

By UniProt entry, the sequences of proteins in these tests, tags left out. Residues count along the entry.
UniProt A4I591, 1-473: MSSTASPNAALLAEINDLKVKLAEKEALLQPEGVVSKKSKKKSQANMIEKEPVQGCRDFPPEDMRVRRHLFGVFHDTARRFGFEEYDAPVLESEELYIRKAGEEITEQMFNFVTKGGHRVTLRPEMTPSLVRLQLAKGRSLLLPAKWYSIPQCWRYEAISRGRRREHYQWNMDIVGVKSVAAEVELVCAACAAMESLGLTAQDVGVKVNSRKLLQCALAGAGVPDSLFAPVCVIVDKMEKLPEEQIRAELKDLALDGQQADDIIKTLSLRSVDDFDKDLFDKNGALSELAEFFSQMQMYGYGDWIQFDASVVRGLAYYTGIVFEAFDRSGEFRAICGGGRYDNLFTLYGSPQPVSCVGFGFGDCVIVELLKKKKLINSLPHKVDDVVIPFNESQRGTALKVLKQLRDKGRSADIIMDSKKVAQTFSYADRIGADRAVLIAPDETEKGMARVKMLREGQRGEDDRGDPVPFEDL

Data taken from ChEMBL document CHEMBL3988442, “University of Dundee, Small-Polar-MMV Screening Library” (2021).

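Enzyme assay of histidyl-tRNA synthetase; the read-out is not stated. Target: Histidine-tRNA ligase, Leishmania infantum (UniProt A4I591). Concentration: 30 µM. The record gives no direction; compounds that gave an IC50 in retests scored well above the rest, so higher reads as stronger inhibition. The assay is labelled LdHisRS but filed under L. infantum. Size under these conditions: about 69,000 compounds, about 410 of them at 50% or above in at least one test.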

The filed quantity is “Percent Effect” (%). The controls that fix the scale are not given in the record; negative values are as filed. The compounds are a random part of those screened.

Cc1nccn1C1CCCN(C(=O)c2ccc(N(C)C)nn2)C1 (centres undefined) read 11.61%.
Cc1csc(CCNc2ccc(C#N)cc2F)n1 read 13.22%.
CCn1c(CC2CCN(C(=O)c3cc(C(C)C)nn3C)CC2)n[nH]c1=O read 23.08%.
O=C(CCCNC(=O)Nc1ccc(F)cc1F)Nc1cn[nH]c1 read 13.7%.
O=C(CN1CCOCC1)N1CCN(C2CCc3ccc(F)cc32)CC1 (centres undefined) read 4.11%.
NC(=O)CN1CCC(NC(=O)N2CCCC2c2ccsc2)CC1 (centres undefined) read 13.79%.
Cc1ccc(NC(=O)N2CCCC(O)(CO)CC2)cc1Cl (centres undefined) read 16.39%.
Cc1nn(C)c(N(C)C)c1CNCc1ccnc(N2CCCCC2)c1 read 16.52%.
Cc1nnc2n1CCN(C(=O)c1cc(Br)c[nH]1)C2 read 27.52%.
COc1cccc(OC2CN(C(=O)c3cc(CC(C)C)nn3C)C2)c1 read 10.75%.
Cc1cccc(NC(=O)N2CCN(Cc3nnc(C(C)C)o3)CC2)c1 read 11.76%.
Cc1nc(CNc2cccc(Cl)c2Cl)cs1 read 17.12%.
CN(Cc1ccccc1)c1ncccc1CNC1CCCC1 read 8.065%.
Cn1ccnc1COc1ccc(NC(=O)CCC2CCCO2)cc1 (centres undefined) read 13.33%.
CCn1cc(C(=O)NCc2cccnc2N(C)Cc2ccccc2)cn1 read -2.198%.
Cc1cc(N(C)C)nc(C2COCCN2Cc2csc(C)n2)n1 (centres undefined) read 5.369%.
Cc1nc(CC(=O)N2CCCC2c2nc(C(C)C)no2)cs1 (centres undefined) read 16.13%.
CC(C)c1noc(CCCC(=O)N2CCN(C)CC2c2ccccc2)n1 (centres undefined) read 15.38%.
CCN(CCOC)C(=O)c1ccc2c(c1)nc(N1CC[C@H](O)C1)n2C read 17.7%.
Cc1cc2n(n1)CCN(c1nc(N)nc3c1CCNCC3)C2 read 10.2%.
CN(C)c1cc(CNC(=O)c2ccc(=O)[nH]n2)ccn1 read 24%.
N#Cc1c(Cl)nsc1NCc1ccc(N2CCCC(C(N)=O)C2)cc1 (centres undefined) read 16.44%.
Cn1cc(CNCC2(N3CCCCC3)Cc3ccccc3C2)cn1 read 10.96%.
COC(=O)CCC(=O)N1CCC2(CN(Cc3ccccc3)C2)C1 read 4.167%.
COc1ccc(CC(=O)N2CC[C@H](CO)[C@H](O)C2)c(OC)c1 read 2.778%.
O=C(CSc1ccccn1)N1CCC(OCc2cccnc2)CC1 read 20.78%.
COCCN1C[C@@H](C)[C@@]2(COCCN(C(=O)c3ccccn3)C2)C1 read 11.11%.
COc1ccccc1OC1CN(C(=O)CN(C)Cc2ccncc2)C1 read 9.524%.
O=C(CN1CCSCC1c1ccccc1)N1CCOCC1 (centres undefined) read 8.219%.
CCC(Nc1cccc(OC)c1)C(=O)NCc1ccc2[nH]c(=O)[nH]c2c1 (centres undefined) read 16.39%.
COCc1cc(NCc2cccnc2Oc2ccc(C)nc2)ncn1 read 17.5%.
Cc1ccc2c(c1)CCC21CCN(C(=O)CO)CC1 read 21.7%.
Cn1nc(COc2cccnc2)c2c1CCN(CC1CC1)C2 read 4.545%.
Cc1ccc(CN2CC[C@H]3[C@H]2CC(=O)N3c2cccnc2)o1 read -2.521%.
Cc1cnn(CC2CCCN2C(=O)c2cc3c(F)cccc3[nH]2)c1 (centres undefined) read 9.375%.
CC(NC(=O)Nc1nccs1)c1cccnc1 (centres undefined) read 7.937%.
Cn1nccc1C(=O)N1CCOC(Cc2ccc(F)cc2)C1 (centres undefined) read -1.754%.

The last 3 entries again:

Cc1cnn(CC2CCCN2C(=O)c2cc3c(F)cccc3[nH]2)c1 (centres undefined) read 9.375%.
CC(NC(=O)Nc1nccs1)c1cccnc1 (centres undefined) read 7.937%.
Cn1nccc1C(=O)N1CCOC(Cc2ccc(F)cc2)C1 (centres undefined) read -1.754%.